PubChem BioAssay AID652259 – Drosophila RNAi Screening Center | 2013
Screen: 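Genome-wide hunt for genes that control Wingless pathway activity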 (primary screen). Cell system: Drosophila clone 8 imaginal disc epithelial cells. Reagents: long dsRNA against Drosophila genes. Conditions: pathway stimulated by co-transfected Wingless expression plasmid. Measured: 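Dual luciferase reads per well after Wingless plasmid stimulation: reporter firefly light and Renilla control light; activity is firefly divided by Renilla, a ratio not deposited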. Reading the numbers: firefly reporter light: higher = more Wg reporter light, before normalisation; Renilla control light: higher = more transfected or surviving cells. Hit rule: 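Strong candidates differ from their plate mean by at least two out of four per-plate statistical tests; weak candidates meet just one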. Meaning of the calls: active = candidate regulator (raises or lowers reporter); inactive = not a candidate.
The screen tested about 22,000 reagents; shown is an unselected part of those with a known target gene and a result. Over the whole deposit, 233 (1.1%) are marked active. 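Light values are raw, unnormalised plate reads; the ratio scores behind the reporter calls were not deposited.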 A number with no mark means an inactive call. A plus sign joins genes that one reagent is predicted to hit. Reagent sequences are not shown. The record does not give: the amount of reagent, the time to read-out, the dose of the treatment.

Gene | dsRNA | reporter change call, replicate 1 | firefly reporter light, replicate 1 | firefly reporter light, replicate 2 | Renilla control light, replicate 1 | Renilla control light, replicate 2
CG5946 | DRSC10560 | – | 5777 | – | 2116 | –
CG34376 | DRSC14695 | – | 36361 | – | 6889 | –
CG34376 | DRSC14696 | – | 39879 | – | 7015 | –
CG34376 | DRSC14701 | – | 38020 | – | 8419 | –
dpr3 | DRSC00395 | – | 3027 | 6072 | 1348 | 2294
dpr3 | DRSC00396 | – | 4261 | 8317 | 1253 | 2186
dpr3 | DRSC21369 | Wg reporter activity raised | 3.44e5 | 4.29e5 | 40384 | 36732
Dscam1 | DRSC05047 | – | 16169 | – | 8285 | –
Dscam1 | DRSC05048 | – | 15693 | – | 8103 | –
Dscam1 | DRSC07407 | – | 2272 | 6409 | 648 | 2283
Dscam1 | DRSC21562 | – | 5.05e5 | 4.99e5 | 1.50e5 | 1.46e5
Dscam1 | DRSC22383 | – | 9.00e5 | 8.24e5 | 4.41e5 | 4.03e5
Sin1 | DRSC05965 | – | 13211 | – | 3084 | –
CG42324 | DRSC08431 | – | 3866 | – | 1872 | –
CG42324 | DRSC08432 | – | 4595 | – | 2532 | –
ATPsynG | DRSC02928 | – | 2362 | 8312 | 992 | 4146
Cam | DRSC07353 | – | 9437 | 8.15e5 | 3856 | 3.69e5
Cam | DRSC07354 | – | 8748 | – | 3412 | –
Phax | DRSC07066 | – | 2736 | 8810 | 1076 | 3763
Fpgs2 | DRSC00600 | – | 2563 | 6141 | 1225 | 2240
CG43336 | DRSC15765 | – | 19701 | – | 5133 | –
Stoml2 | DRSC04326 | – | 14185 | – | 4372 | –
CG6052 | DRSC10574 | – | 3788 | – | 1876 | –
CtsK1 | DRSC08742 | – | 4214 | – | 1938 | –
CG30091 | DRSC21809 | – | 5.06e5 | 4.56e5 | 2.30e5 | 1.94e5
Usp15-31 | DRSC04426 | – | 24884 | – | 6843 | –
Usp15-31 | DRSC04532 | – | 3184 | 7723 | 506 | 1104
Pfdn1 | DRSC02325 | – | 2544 | 7801 | 816 | 2619
CG13605 | DRSC14608 | – | 3156 | 4512 | 1152 | 1437
Tsp29Fb | DRSC03233 | – | 3869 | 9264 | 995 | 3403
CG12773 | DRSC18580 | – | 2960 | 8025 | 1226 | 1376
TwdlU | DRSC12224 | – | 19292 | – | 6112 | –
Pep | DRSC11252 | – | 3376 | – | 1929 | –
TBC1D16 | DRSC02841 | – | 3318 | 6952 | 918 | 2301
shep | DRSC08748 | – | 3556 | – | 876 | –
shep | DRSC09765 | – | 2080 | 9171 | 1313 | 2573
shep | DRSC09771 | – | 14775 | – | 3207 | –
CG14626 | DRSC18631 | – | 16045 | – | 11290 | –
CG11666 | DRSC22379 | – | 5.64e5 | 7.36e5 | 1.97e5 | 2.71e5
Adck5 | DRSC10890 | – | 5554 | – | 2724 | –
CG33258 | DRSC09415 | – | 1971 | – | 753 | –
CG12715 | DRSC19492 | – | 15360 | – | 8219 | –
CG3906 | DRSC04431 | – | 8237 | – | 1900 | –
CG6225 | DRSC15996 | – | 12541 | – | 3525 | –
CG32137 | DRSC10271 | – | 6538 | – | 2075 | –
CG32137 | DRSC10272 | – | 3575 | – | 1059 | –
CG6026 | DRSC15950 | – | 24010 | – | 3511 | –
CCKLR-17D3 | DRSC20015 | – | 26985 | – | 1520 | –
CCKLR-17D3 | DRSC20017 | – | 13138 | – | 7584 | –
CG4194 | DRSC18520 | – | 2551 | 6865 | 1048 | 2024
tor | DRSC07707 | – | 3417 | 8506 | 1048 | 3285
CG14655 | DRSC12241 | – | 3725 | – | 1525 | –
CG15721 | DRSC19688 | – | 29990 | – | 13126 | –
CG33225 | DRSC03881 | – | 11217 | – | 5627 | –
CG17163 | DRSC20901 | – | 20504 | – | 8837 | –
CG2921 | DRSC04324 | – | 9818 | – | 2514 | –
CG14234 | DRSC19317 | – | 4913 | – | 1949 | –
CG14234 | DRSC19589 | – | 9883 | – | 8155 | –
ebd2 | DRSC11682 | – | 12720 | – | 4021 | –
CG15200 | DRSC19647 | – | 16872 | – | 9061 | –
CG6693 | DRSC16097 | – | 9159 | – | 2916 | –
CG34301 | DRSC12704 | – | 2807 | – | 1243 | –
CG14362 | DRSC14824 | – | 15313 | – | 3991 | –
lncRNA:CR43337 | DRSC07893 | – | 3780 | – | 2268 | –
wkd | DRSC15777 | – | 12361 | – | 2475 | –
CG12645 | DRSC17851 | – | 24848 | – | 9224 | –
CG8888 | DRSC07294 | – | 12928 | – | 4230 | –
CG8888 | DRSC07295 | Wg reporter activity lowered (active) | 5813 | – | 4464 | –
CG14837 | DRSC10207 | – | 1288 | 6960 | 1120 | 2812
amon | DRSC13784 | – | 3124 | – | 1573 | –
amon | DRSC16900 | – | 7472 | – | 3216 | –
Arpc4 | DRSC02917 | – | 2800 | 7073 | 521 | 1744
CG31343 | DRSC15887 | – | 2677 | 5444 | 1368 | 2257
CG15861 | DRSC04274 | – | 1872 | 5483 | 427 | 2176
CG11263 | DRSC09832 | – | 4620 | – | 2193 | –
CheB53b | DRSC05613 | – | 14576 | – | 7176 | –
Jhbp2 | DRSC12292 | – | 19624 | – | 6181 | –
Tsp42Eh | DRSC06190 | – | 3008 | 7464 | 890 | 3504
sNPF | DRSC02309 | – | 1971 | 7376 | 640 | 2380
CG45002 | DRSC20144 | – | 19739 | – | 10757 | –
CG7006 | DRSC16169 | – | 2204 | 9367 | 1259 | 2096
Efr | DRSC18322 | – | 19500 | – | 9910 | –
lncRNA:CR32835 | DRSC22693 | – | 8.87e5 | 8.72e5 | 4.34e5 | 1.55e5
CG43132 (retired record) | DRSC19484 | – | 25622 | – | 11848 | –
CG13800 (retired record) | DRSC08334 | – | 6720 | – | 2621 | –
CG10600 | DRSC02074 | – | 6285 | – | 1291 | –
Uba3 | DRSC06377 | – | 10709 | – | 3642 | –
CG17618 (retired record) + CG45049 | DRSC16163 | – | 23312 | – | 18571 | –
CG17618 (retired record) + CG45049 | DRSC22054 | – | 3.28e5 | 3.94e5 | 51294 | 62118
Ptip | DRSC10660 | – | 3868 | – | 1472 | –
Ptip | DRSC11048 | – | 4611 | – | 1111 | –
CG33270 | DRSC10584 | – | 5053 | – | 2688 | –
CG9270 | DRSC03182 | – | 10860 | – | 3225 | –

A stretch taken from the entries so far, for reference:
Gene | dsRNA | reporter change call, replicate 1 | firefly reporter light, replicate 1 | firefly reporter light, replicate 2 | Renilla control light, replicate 1 | Renilla control light, replicate 2
shep | DRSC09771 | – | 14775 | – | 3207 | –
CG14626 | DRSC18631 | – | 16045 | – | 11290 | –
CG11666 | DRSC22379 | – | 5.64e5 | 7.36e5 | 1.97e5 | 2.71e5
Adck5 | DRSC10890 | – | 5554 | – | 2724 | –
CG33258 | DRSC09415 | – | 1971 | – | 753 | –
CG12715 | DRSC19492 | – | 15360 | – | 8219 | –
CG3906 | DRSC04431 | – | 8237 | – | 1900 | –
CG6225 | DRSC15996 | – | 12541 | – | 3525 | –
CG32137 | DRSC10271 | – | 6538 | – | 2075 | –
CG32137 | DRSC10272 | – | 3575 | – | 1059 | –
CG6026 | DRSC15950 | – | 24010 | – | 3511 | –
CCKLR-17D3 | DRSC20015 | – | 26985 | – | 1520 | –
CCKLR-17D3 | DRSC20017 | – | 13138 | – | 7584 | –
CG4194 | DRSC18520 | – | 2551 | 6865 | 1048 | 2024
